Assay results from PMC10326024.
No constants are given. Whether binding was seen depends on the method and setting. Binding seen in cells or lysates may run through a third protein. A yes stands for co-enrichment or nearness to the bait. Other partners may have been found. Where a sequence is shown, tags or fusion partners need not be part of it.

Amino acid sequences for entries named in this document (tags omitted).
UniProt Q00534: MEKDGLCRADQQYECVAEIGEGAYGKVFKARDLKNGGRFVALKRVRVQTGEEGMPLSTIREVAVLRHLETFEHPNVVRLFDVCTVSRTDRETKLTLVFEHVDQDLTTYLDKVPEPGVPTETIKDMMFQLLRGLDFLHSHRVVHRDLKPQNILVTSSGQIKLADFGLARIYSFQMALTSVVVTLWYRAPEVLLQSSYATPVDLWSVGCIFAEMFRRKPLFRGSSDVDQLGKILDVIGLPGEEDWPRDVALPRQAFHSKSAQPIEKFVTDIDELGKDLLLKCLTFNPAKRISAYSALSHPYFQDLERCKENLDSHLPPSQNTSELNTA
UniProt P24385: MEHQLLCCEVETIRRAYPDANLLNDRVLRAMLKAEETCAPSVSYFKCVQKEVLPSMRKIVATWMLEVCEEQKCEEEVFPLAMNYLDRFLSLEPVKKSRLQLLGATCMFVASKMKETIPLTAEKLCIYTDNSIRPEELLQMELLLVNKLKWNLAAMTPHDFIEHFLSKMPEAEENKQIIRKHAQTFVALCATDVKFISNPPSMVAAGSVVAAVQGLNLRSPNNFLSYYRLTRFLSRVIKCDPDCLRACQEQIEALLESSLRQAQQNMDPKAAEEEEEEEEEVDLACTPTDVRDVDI

Target: T1, MYC-tagged MG53 (TRIM72) (human) (UniProt Q6ZMU5)
T1 sequence: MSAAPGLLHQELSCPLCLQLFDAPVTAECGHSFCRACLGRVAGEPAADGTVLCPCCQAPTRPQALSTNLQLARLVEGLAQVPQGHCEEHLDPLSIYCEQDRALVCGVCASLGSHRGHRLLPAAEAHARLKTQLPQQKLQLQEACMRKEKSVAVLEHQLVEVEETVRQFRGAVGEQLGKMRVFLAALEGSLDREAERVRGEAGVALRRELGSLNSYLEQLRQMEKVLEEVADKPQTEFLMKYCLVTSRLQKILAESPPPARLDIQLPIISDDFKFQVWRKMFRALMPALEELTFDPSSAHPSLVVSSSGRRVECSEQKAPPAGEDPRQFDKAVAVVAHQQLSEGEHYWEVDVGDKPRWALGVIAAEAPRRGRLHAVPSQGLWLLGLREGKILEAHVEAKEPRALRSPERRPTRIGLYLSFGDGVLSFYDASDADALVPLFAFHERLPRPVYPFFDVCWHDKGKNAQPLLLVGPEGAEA
Test: affinity purification with mass spectrometry; C-terminally MYC-tagged MG53 expressed by adenovirus in HCT116 or AGS cells; immunoprecipitated with anti-MYC antibody (IgG control) on protein A Sepharose; gel bands analysed by LC-MS/MS

Substance	binding
CDK6 (from UniProt Q00534 1-326) (enzyme)	binds
endogenous cyclin D1 (from UniProt P24385 1-295)	binds
